Data as given in PubChem BioAssay AID1259308 (NCATS, 2017)
In all, the deposit lists about 59,000 reagents; below is an unselected part. Over the whole deposit, about 1,510 (2.6%) were called active. 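Calls use total luciferase alone and ignore viability, so some active siRNAs may act by altering cell number.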 Entries without a mark were called inactive. Reagents against one gene are numbered here. Not all columns of the deposit are shown.

- Assay: 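Knock-downs that increase output of a recombinant reporter protein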 (primary screen)
- System: human HEK293 embryonic kidney cells stably expressing firefly luciferase (HEK-CMV-Luc2-Hygro)
- Reagents: single siRNA against human genes, 0.8 pmol siRNA per well
- Timing: 72 h
- Measured: 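Reporter luminescence and viable-cell signal on separate replicate plates, given as percent of non-targeting control and median/MAD z-scores, plus per-cell luciferase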
- Scale: total luciferase, z-score: higher = more reporter protein produced
- Active means: 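An siRNA counts as active if its total luciferase robust z-score exceeds 3; genes with two or more such siRNAs out of three were retested with fresh siRNAs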
- Calls: active = raised luciferase; inactive = no rise

PACSIN3 (protein kinase C and casein kinase substrate in neurons 3) #1: total luciferase, z-score = -0.47
PACSIN3 (protein kinase C and casein kinase substrate in neurons 3) #2: total luciferase, z-score = 1.16
PACSIN3 (protein kinase C and casein kinase substrate in neurons 3) #3: total luciferase, z-score = -0.54
SF3B4 (splicing factor 3b subunit 4) #1: total luciferase, z-score = 3.27 (active)
SF3B4 (splicing factor 3b subunit 4) #2: total luciferase, z-score = -0.124
SF3B4 (splicing factor 3b subunit 4) #3: total luciferase, z-score = 3.38 (active)
GRAMD4 (GRAM domain containing 4) #1: total luciferase, z-score = -1.2
GRAMD4 (GRAM domain containing 4) #2: total luciferase, z-score = 1.9
GRAMD4 (GRAM domain containing 4) #3: total luciferase, z-score = 0.072
SC5D (sterol-C5-desaturase) #1: total luciferase, z-score = -0.151
SC5D (sterol-C5-desaturase) #2: total luciferase, z-score = -0.473
SC5D (sterol-C5-desaturase) #3: total luciferase, z-score = -0.771
